Earlier results in patent US9044421B2, “Treating MUC1-expressing cancers with combination therapies” (GENUS ONCOLOGY, LLC., priority 2012, dated 2015).
At least one structure is not confirmed: it was looked up by name or label, or the drawing left a doubt.

System: many cancer cell lines
Details: read-out: IC50, inhibition of cell proliferation; cited from earlier work

O=c1cc(N2CCOCC2)oc2c(-c3ccccc3)cccc12 [LY294002]
IC50: 10 to 25 µM
